Results deposited as PubChem BioAssay AID1259405 (NCATS, 2018).
Shown is one part, drawn at random, of about 50,000 reagents tested. About 4,000 of them (8%) were called active. 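Mouse siRNA library applied to hamster cells; one well for each siRNA.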 The numbers tell different reagents against one gene apart. Reagent sequences are not shown.

Aim: 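Mouse-designed siRNAs used to find CHO productivity engineering targets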 (primary screen)
System: Chinese hamster CHO-K1 ovary cells with stable secreted eGFP expression
Reagents: single siRNA against mouse genes, 0.8 pmol siRNA per well (2 µl of 400 nM stock)
Time to read-out: 3 days
Measurement: 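Percent of the per-plate non-targeting control median for intracellular GFP per well by laser scanning cytometry and for cell viability by ATP luminescence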
Scale: GFP, % of control: higher = more GFP per well, higher productivity; viability (ATP), % of control: higher = more viable cells (more ATP)
Hit rule: 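a knock-down is called active if GFP reaches 120% or more of non-targeting control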

| Target gene | reagent | GFP, % of control | viability (ATP), % of control | call |
| --- | --- | --- | --- | --- |
| Tram1 (translocating chain-associating membrane protein 1) | 1 | 63 | 50.6 | inactive |
| Tram1 (translocating chain-associating membrane protein 1) | 2 | 95.6 | 102 | inactive |
| Tram1 (translocating chain-associating membrane protein 1) | 3 | 81.8 | 66.3 | inactive |
| Ptges (prostaglandin E synthase) | 1 | 65.9 | 69.7 | inactive |
| Ptges (prostaglandin E synthase) | 2 | 89 | 91.5 | inactive |
| Pde6g (phosphodiesterase 6G, cGMP-specific, rod, gamma) | 1 | 93.1 | 107 | inactive |
| Pde6g (phosphodiesterase 6G, cGMP-specific, rod, gamma) | 2 | 69.1 | 52.8 | inactive |
| Pde6g (phosphodiesterase 6G, cGMP-specific, rod, gamma) | 3 | 40.3 | 40.1 | inactive |
| Trhr (thyrotropin releasing hormone receptor) | 1 | 74 | 80.4 | inactive |
| Trhr (thyrotropin releasing hormone receptor) | 2 | 51.9 | 75 | inactive |
| Trhr (thyrotropin releasing hormone receptor) | 3 | 73.2 | 87.1 | inactive |
| Col6a3 (collagen, type VI, alpha 3) | 1 | 40.1 | 77 | inactive |
| Col6a3 (collagen, type VI, alpha 3) | 2 | 85.9 | 92.1 | inactive |
| Tbx2 (T-box 2) | 1 | 88.1 | 93.8 | inactive |
| Tbx2 (T-box 2) | 2 | 91.1 | 47.3 | inactive |
| Tbx2 (T-box 2) | 3 | 86.7 | 93.2 | inactive |
| Or4d2b (olfactory receptor family 4 subfamily D member 2B) | 1 | 92.1 | 81.4 | inactive |
| Or4d2b (olfactory receptor family 4 subfamily D member 2B) | 2 | 71.7 | 68.9 | inactive |
| Or4d2b (olfactory receptor family 4 subfamily D member 2B) | 3 | 131 | 111 | active |
| Ilf3 (interleukin enhancer binding factor 3) | 1 | 78.9 | 76.9 | inactive |
| Ilf3 (interleukin enhancer binding factor 3) | 2 | 98.6 | 64.6 | inactive |
| Ilf3 (interleukin enhancer binding factor 3) | 3 | 54.3 | 61.7 | inactive |
| Hsd3b2 | 1 | 89.9 | 26.2 | inactive |
| Hsd3b2 | 2 | 98.6 | 64.4 | inactive |
| Hsd3b2 | 3 | 73.4 | 71.6 | inactive |
| Tm4sf4 (transmembrane 4 superfamily member 4) | 1 | 72.9 | 64.4 | inactive |
| Tm4sf4 (transmembrane 4 superfamily member 4) | 2 | 96.1 | 101 | inactive |
| Tm4sf4 (transmembrane 4 superfamily member 4) | 3 | 96.3 | 80.7 | inactive |
| Nebl (nebulette) | 1 | 130 | 85.4 | active |
| Nebl (nebulette) | 2 | 86 | 82 | inactive |
| Nebl (nebulette) | 3 | 134 | 81.8 | active |
| Dynlt1b (dynein light chain Tctex-type 1B) | 1 | 91.7 | 57.1 | inactive |
| Dynlt1b (dynein light chain Tctex-type 1B) | 2 | 93.3 | 94.8 | inactive |
| Dynlt1b (dynein light chain Tctex-type 1B) | 3 | 75.2 | 73.2 | inactive |
| Rbak (RB-associated KRAB zinc finger) | 1 | 58.7 | 56.9 | inactive |
| Rbak (RB-associated KRAB zinc finger) | 2 | 81.1 | 97.4 | inactive |
| Rbak (RB-associated KRAB zinc finger) | 3 | 83.1 | 80.2 | inactive |
| Lhx6 (LIM homeobox protein 6) | 1 | 72 | 75 | inactive |
| Lhx6 (LIM homeobox protein 6) | 2 | 93.8 | 108 | inactive |
| Lhx6 (LIM homeobox protein 6) | 3 | 66.1 | 66.4 | inactive |
| Defa-rs2 (defensin, alpha, related sequence 2) | 1 | 46 | 71.1 | inactive |
| Defa-rs2 (defensin, alpha, related sequence 2) | 2 | 84.8 | 77.2 | inactive |
| Defa-rs2 (defensin, alpha, related sequence 2) | 3 | 133 | 78.4 | active |
| Psip1 (PC4 and SFRS1 interacting protein 1) | 1 | 61 | 67.3 | inactive |
| Psip1 (PC4 and SFRS1 interacting protein 1) | 2 | 45.8 | 48.7 | inactive |
| Psip1 (PC4 and SFRS1 interacting protein 1) | 3 | 74.9 | 79.5 | inactive |
| Gps2 (G protein pathway suppressor 2) | 1 | 69.6 | 61.9 | inactive |
| Gps2 (G protein pathway suppressor 2) | 2 | 102 | 85.1 | inactive |
| Gps2 (G protein pathway suppressor 2) | 3 | 80.3 | 59.8 | inactive |
| Adig (adipogenin) | 1 | 45.1 | 66.9 | inactive |
| Adig (adipogenin) | 2 | 62.6 | 115 | inactive |
| Adig (adipogenin) | 3 | 93.7 | 122 | inactive |

The list goes on (7 carried over from the part before).
| Target gene | reagent | GFP, % of control | viability (ATP), % of control | call |
| --- | --- | --- | --- | --- |
| Psip1 (PC4 and SFRS1 interacting protein 1) | 3 | 74.9 | 79.5 | inactive |
| Gps2 (G protein pathway suppressor 2) | 1 | 69.6 | 61.9 | inactive |
| Gps2 (G protein pathway suppressor 2) | 2 | 102 | 85.1 | inactive |
| Gps2 (G protein pathway suppressor 2) | 3 | 80.3 | 59.8 | inactive |
| Adig (adipogenin) | 1 | 45.1 | 66.9 | inactive |
| Adig (adipogenin) | 2 | 62.6 | 115 | inactive |
| Adig (adipogenin) | 3 | 93.7 | 122 | inactive |
| Rida (reactive intermediate imine deaminase A homolog) | 1 | 52.9 | 64.9 | inactive |
| Rida (reactive intermediate imine deaminase A homolog) | 2 | 127 | 93.6 | active |
| Rida (reactive intermediate imine deaminase A homolog) | 3 | 144 | 111 | active |
| Specc1l | 1 | 94.3 | 83.6 | inactive |
| Specc1l | 2 | 117 | 53.1 | inactive |
| Specc1l | 3 | 63.9 | 75.4 | inactive |
| 4631405J19Rik (RIKEN cDNA 4631405J19 gene) | 1 | 43.7 | 26.3 | inactive |
| 4631405J19Rik (RIKEN cDNA 4631405J19 gene) | 2 | 26.6 | 63.4 | inactive |
| 4631405J19Rik (RIKEN cDNA 4631405J19 gene) | 3 | 111 | 49.8 | inactive |
| Phospho2 (phosphatase, orphan 2) | 1 | 121 | 81.3 | active |
| Phospho2 (phosphatase, orphan 2) | 2 | 57.9 | 65.5 | inactive |
| Phospho2 (phosphatase, orphan 2) | 3 | 62.1 | 81.1 | inactive |
| Olfr257 (olfactory receptor 257) | 1 | 23.7 | 30.1 | inactive |
| Olfr257 (olfactory receptor 257) | 2 | 51.8 | 73.1 | inactive |
| Olfr257 (olfactory receptor 257) | 3 | 41.1 | 46.6 | inactive |
| Aff2 (AF4/FMR2 family, member 2) | 1 | 28.8 | 44.9 | inactive |
| Aff2 (AF4/FMR2 family, member 2) | 2 | 53.2 | 65.1 | inactive |
| Aff2 (AF4/FMR2 family, member 2) | 3 | 89.8 | 95 | inactive |
| Kpna3 (karyopherin subunit alpha 3) | 1 | 120 | 99.7 | inactive |
| Kpna3 (karyopherin subunit alpha 3) | 2 | 39.1 | 40 | inactive |
| Kpna3 (karyopherin subunit alpha 3) | 3 | 81.2 | 75.5 | inactive |
| Nedd4 | 1 | 74.8 | 94.4 | inactive |
| Nedd4 | 2 | 59.4 | 78.1 | inactive |
| Nedd4 | 3 | 59.1 | 67.5 | inactive |
| Nme2 (NME/NM23 nucleoside diphosphate kinase 2) | 1 | 143 | 62.7 | active |
| Nme2 (NME/NM23 nucleoside diphosphate kinase 2) | 2 | 67.1 | 74.5 | inactive |
| Nme2 (NME/NM23 nucleoside diphosphate kinase 2) | 3 | 105 | 92.4 | inactive |
| Orm2 (orosomucoid 2) | 1 | 66.8 | 84.7 | inactive |
| Orm2 (orosomucoid 2) | 2 | 76.7 | 69.4 | inactive |
| Dnaaf6rt (dynein axonemal assembly factor 6, retrotransposed) | 1 | 23.4 | 67.1 | inactive |
| Dnaaf6rt (dynein axonemal assembly factor 6, retrotransposed) | 2 | 52.9 | 74.7 | inactive |
| Dnaaf6rt (dynein axonemal assembly factor 6, retrotransposed) | 3 | 46.9 | 85.9 | inactive |
